A short description of the series: Fluorescence emission spectra of Compound Z in phosphate buffers of pH 4.5 and 7.4. Format: physicochemical. As to conditions: ~10^-6 M.

For the molecule `CC1(C)C(/C=C/C=C/C=C2/Nc3ccc(S(=O)(=O)O)cc3C2(C)C)=Nc2ccc(C(=O)NCc3ccc4ccc5cccc6ccc3c4c56)cc21` [Compound Z], for the setting “pH 4.5 phosphate buffer”, the “Cy5 emission at 650-700 nm upon excitation at 343 nm (pyrene)” value is “no emission from the Cy5” and the “Cy5 emission upon excitation at 633 nm” value was “emission occurs from the Cy5”. Further, the “Cy5 emission upon excitation at 633 nm” value (pH 7.4 buffer) is given as “little emission from Cy5”. For the same molecule, where the note is “pH 7.4 phosphate buffer”, the “energy transfer to Cy5 (signal at 650 nm) upon excitation at 343 nm” value is recorded as “no energy transfer to Cy5”.
